Some of the results follow.
molecular target: OsWRKY34 (Oryza sativa, UniProt Q0JBA9 1-250); test: protein-binding microarray (RPBM); PBS, 2% BSA, 51.3 ng/ul salmon testes DNA, 50 uM zinc acetate, 200 nM TF, 25 C, 1 h; high values mean tight binding; conditions: protein: recombinant; tags: N-terminal polyhistidine and DsRed monomer fusion (pET32a); label: CyDye5-dUTP incorporated in the synthesized complementary strand; 3' TTTTT single-stranded linker to array surface; dsDNA, one strand shown
Method in brief: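 For the binding signal, per-feature fluorescence intensity was read in arbitrary units on an Axon 4000B scanner. Before scanning, a 2% BSA-blocked custom Agilent array made double-stranded with Cy5-dUTP was washed after 1 h at 25 °C with 200 nM protein and 50 µM zinc acetate. The proteins were Ni–NTA-purified transcription factors with N-terminal polyhistidine and DsRed fusions, expressed in E. coli BL21-CodonPlus.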

Chains of the proteins cited; added tags and fusions are not shown.
UniProt Q0JBA9, entry or part of it: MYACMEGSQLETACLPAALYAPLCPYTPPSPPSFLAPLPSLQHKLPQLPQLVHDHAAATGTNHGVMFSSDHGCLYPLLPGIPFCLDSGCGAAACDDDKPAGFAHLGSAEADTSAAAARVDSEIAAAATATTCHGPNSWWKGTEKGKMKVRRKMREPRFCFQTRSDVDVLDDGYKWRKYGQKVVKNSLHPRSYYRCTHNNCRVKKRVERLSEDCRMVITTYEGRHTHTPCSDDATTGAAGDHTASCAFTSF

**Q.** Which binding signal does the source give for “GGAGAAGCTGCAGCCGCTATTACATCCCTTGCCATCTCCACGGAGTCACCTAGTGCAG” here?
**A.** Its binding signal is 9300 fluorescence intensity (a.u.).

**Q.** How did the binding signal turn out when “TGTGGTTAAAGTGAGATGATCGTAAGTATTATTGCGACTACGGAGTCACCTAGTGCAG” was run?
**A.** Its binding signal is 8330 fluorescence intensity (a.u.).

**Q.** How did the binding signal turn out when “CCAGTTCTTGAGTTTGCTTCTGTGAGCTTTCGTCATATTACGGAGTCACCTAGTGCAG” was run?
**A.** The binding signal was 8590 fluorescence intensity (a.u.).

**Q.** With “GGCTGGTATTATGATCTTGTTGCTATTTCTTGATCAATTTCGGAGTCACCTAGTGCAG” as the sequence, how does the binding signal read?
**A.** Its binding signal is 10600 fluorescence intensity (a.u.).

**Q.** Which binding signal does the source give for “AGTAACTTTGAATTCCGCTAATGTTTTGGGTTTTGGGTACCGGAGTCACCTAGTGCAG” here?
**A.** The binding signal was 9420 fluorescence intensity (a.u.).

**Q.** With “CTTGAGTTTTGGCCGTCTATCACCCGTACGTCGCACGAAGCGGAGTCACCTAGTGCAG” as the sequence, how does the binding signal read?
**A.** Its binding signal is 8810 fluorescence intensity (a.u.).

**Q.** With “CTCCTACAGTCGTCGTCCTCCGGCCACCGCCGTCCTCTGCCGGAGTCACCTAGTGCAG” as the sequence, how does the binding signal read?
**A.** The binding signal was 9010 fluorescence intensity (a.u.).

**Q.** How did the binding signal turn out when “GTGGTGGAAGGTACGATTTGGAGAGACTTTGAGATGGCGTCGGAGTCACCTAGTGCAG” was run?
**A.** Its binding signal is 8890 fluorescence intensity (a.u.).

**Q.** How did the binding signal turn out when “TTGTTTCTTCTCTGCTTCGGCTGGGGACTGACTATAAATGCGGAGTCACCTAGTGCAG” was run?
**A.** The binding signal was 8410 fluorescence intensity (a.u.).

**Q.** Which binding signal does the source give for “TTAATGTGTGTTCCTGTTGTGGTCTTGTGGATGGTGGATACGGAGTCACCTAGTGCAG” here?
**A.** Its binding signal is 11800 fluorescence intensity (a.u.).

**Q.** Which binding signal does the source give for “GTTTGTTTTTGAAAATATATATCTGTATTTGAGTAGGGTTCGGAGTCACCTAGTGCAG” here?
**A.** The binding signal was 9630 fluorescence intensity (a.u.).

**Q.** How did the binding signal turn out when “GATCCAAGAGTGGAGAAGGAGAGGGGTGGGGAGCCGGCGACGGAGTCACCTAGTGCAG” was run?
**A.** The binding signal was 9460 fluorescence intensity (a.u.).

**Q.** With “ACCAAATAGAAATATTTTCCGCGAGTTTTTACTTTTCATACGGAGTCACCTAGTGCAG” as the sequence, how does the binding signal read?
**A.** The binding signal was 9970 fluorescence intensity (a.u.).

**Q.** For “CGCCTCCTACCTCTTGCTGCAGCGCACGGCGCCGCGCCGTCGGAGTCACCTAGTGCAG”, which binding signal is on record?
**A.** The binding signal was 8910 fluorescence intensity (a.u.).

**Q.** Which binding signal does the source give for “GTACCAATTTTTGAAGAAAAAATTCAGCTGTCACATTGATCGGAGTCACCTAGTGCAG” here?
**A.** The binding signal was 8170 fluorescence intensity (a.u.).

**Q.** For “GGCCAATCTGCCGGATATTCGCAGCCATTTACGCTTTCCACGGAGTCACCTAGTGCAG”, which binding signal is on record?
**A.** Its binding signal is 12900 fluorescence intensity (a.u.).

**Q.** For “GCCAAGTCTGGTTAACACATTATTTTCCTTTGTAATTGGTCGGAGTCACCTAGTGCAG”, which binding signal is on record?
**A.** Its binding signal is 9250 fluorescence intensity (a.u.).

**Q.** Which binding signal does the source give for “TTCGACGCCCAGCGCTGTCTCATCCCCTCCCCGCCAAAACCGGAGTCACCTAGTGCAG” here?
**A.** The binding signal was 8090 fluorescence intensity (a.u.).

**Q.** With “CATAATATAAGATTTTTTTAGTATTGCTCACATCTATTCACGGAGTCACCTAGTGCAG” as the sequence, how does the binding signal read?
**A.** The binding signal was 8230 fluorescence intensity (a.u.).

**Q.** Which binding signal does the source give for “TTCTTACTCCTATATACTTTCAAATGTTCCAATGACTTGGCGGAGTCACCTAGTGCAG” here?
**A.** Its binding signal is 8930 fluorescence intensity (a.u.).

**Q.** With “CCCTGAACTTCCGCTTGATTCTTCCTGGACCTACGCTTTCCGGAGTCACCTAGTGCAG” as the sequence, how does the binding signal read?
**A.** Its binding signal is 10200 fluorescence intensity (a.u.).

**Q.** “GGGGCCATTTTCGTTTTTGCCACATCAACTCGAGTAGACCCGGAGTCACCTAGTGCAG” was tested. Which binding signal did it give?
**A.** Its binding signal is 8870 fluorescence intensity (a.u.).

**Q.** Which binding signal does the source give for “GCACATAAATGATACACTCTTATAAGTCGTTTTACTTTTTCGGAGTCACCTAGTGCAG” here?
**A.** The binding signal was 11600 fluorescence intensity (a.u.).

**Q.** With “GACCGCCGCCGCTTGAGCTGACCTGACCCCGAGCCGAGCCCGGAGTCACCTAGTGCAG” as the sequence, how does the binding signal read?
**A.** Its binding signal is 8250 fluorescence intensity (a.u.).

**Q.** For “CTCCTCCACGCCTCCGCCTCCGCCTCCGCCTCCACGACGTCGGAGTCACCTAGTGCAG”, which binding signal is on record?
**A.** The binding signal was 10600 fluorescence intensity (a.u.).

**Q.** “GGCGGCGGCGGCGGGGCGGCGTGGCGCCGAGGGAGGGGAACGGAGTCACCTAGTGCAG” was tested. Which binding signal did it give?
**A.** The binding signal was 12500 fluorescence intensity (a.u.).

**Q.** “TAGTGACCTAGTCGATGCGATCCTCCATCGGTTCCCTTCTCGGAGTCACCTAGTGCAG” was tested. Which binding signal did it give?
**A.** The binding signal was 8200 fluorescence intensity (a.u.).

**Q.** “CTTCTGCTTGGTGTGTTGTGTGTTTTACCTTGAGTTATCTCGGAGTCACCTAGTGCAG” was tested. Which binding signal did it give?
**A.** Its binding signal is 8480 fluorescence intensity (a.u.).

**Q.** With “TGACGGCGGGCGGCGGCGGGAGGGAGGGTAGAGGTAGAGCCGGAGTCACCTAGTGCAG” as the sequence, how does the binding signal read?
**A.** Its binding signal is 9950 fluorescence intensity (a.u.).

**Q.** “GCCCGCCTTTCAAACCCACACTGTTCATGTCTTCTTGTTCCGGAGTCACCTAGTGCAG” was tested. Which binding signal did it give?
**A.** The binding signal was 10400 fluorescence intensity (a.u.).

**Q.** With “CGAGGTCAGCGCCCAACTACTACTCCTCGTCATTTTGGTTCGGAGTCACCTAGTGCAG” as the sequence, how does the binding signal read?
**A.** The binding signal was 13300 fluorescence intensity (a.u.).

**Q.** For “GTCCAAGTTTCTTTGTTCTTTTGCGCCTTGCACTGCAGCACGGAGTCACCTAGTGCAG”, which binding signal is on record?
**A.** The binding signal was 13900 fluorescence intensity (a.u.).

**Q.** For “ACGCAAACTGCATAATTAGTTTTTTTATGTTCAATACTTCCGGAGTCACCTAGTGCAG”, which binding signal is on record?
**A.** Its binding signal is 9430 fluorescence intensity (a.u.).

**Q.** For “AACCCTACTTTCCGTGTCCAATATTTAACCGTCCGTCTTACGGAGTCACCTAGTGCAG”, which binding signal is on record?
**A.** Its binding signal is 11500 fluorescence intensity (a.u.).

**Q.** How did the binding signal turn out when “GCCCCACCGCGTCGGCCGTCGCGTAGCGGCCGGCCCATATCGGAGTCACCTAGTGCAG” was run?
**A.** The binding signal was 9550 fluorescence intensity (a.u.).

**Q.** Which binding signal does the source give for “CCTCCGCCTCATCAGTGCTGCCACCACTACCGCAGTTGCTCGGAGTCACCTAGTGCAG” here?
**A.** Its binding signal is 8950 fluorescence intensity (a.u.).

**Q.** With “TGGTTTGATAGTTTCTCATATCTTCGTATCGTTATTAAGACGGAGTCACCTAGTGCAG” as the sequence, how does the binding signal read?
**A.** Its binding signal is 8180 fluorescence intensity (a.u.).

**Q.** Which binding signal does the source give for “TCACCTAGATATTACCTATACATTCGTCAACAAATTTTCTCGGAGTCACCTAGTGCAG” here?
**A.** Its binding signal is 8330 fluorescence intensity (a.u.).

**Q.** Which binding signal does the source give for “AAGTGTTTAGGCCTGTTTAGTTCGCGAAAAAAAAAATTTTCGGAGTCACCTAGTGCAG” here?
**A.** Its binding signal is 8030 fluorescence intensity (a.u.).

**Q.** With “GTCGACACCTATTTGCTGTTTTGTGTAGTAGTGAAAATTTCGGAGTCACCTAGTGCAG” as the sequence, how does the binding signal read?
**A.** The binding signal was 8390 fluorescence intensity (a.u.).

**Q.** How did the binding signal turn out when “TGCCCACTTCTATACATATTATGTCCTTTTTTTCACATGTCGGAGTCACCTAGTGCAG” was run?
**A.** Its binding signal is 8160 fluorescence intensity (a.u.).

**Q.** For “AGTTGATCGCGGTCAAATCGTCACGTTAGTTGAACCCGGTCGGAGTCACCTAGTGCAG”, which binding signal is on record?
**A.** Its binding signal is 8260 fluorescence intensity (a.u.).

Source: article PMC7819943, “Rice protein-binding microarrays: a tool to detect cis-acting elements near promoter regions in rice”
